Data as given in article PMC5993293.
Results are given in words; binding and its absence hold for the method and conditions named. In cells and extracts the contact can be indirect. Some results given as binding are weak or reduced against the parent protein; the word gives no strength. For part of these data: Where a sequence is shown, tags or fusion partners need not be part of it.

Protein sequences, listed by entry. Tags and fused reporters are not part of them.
UniProt O88939: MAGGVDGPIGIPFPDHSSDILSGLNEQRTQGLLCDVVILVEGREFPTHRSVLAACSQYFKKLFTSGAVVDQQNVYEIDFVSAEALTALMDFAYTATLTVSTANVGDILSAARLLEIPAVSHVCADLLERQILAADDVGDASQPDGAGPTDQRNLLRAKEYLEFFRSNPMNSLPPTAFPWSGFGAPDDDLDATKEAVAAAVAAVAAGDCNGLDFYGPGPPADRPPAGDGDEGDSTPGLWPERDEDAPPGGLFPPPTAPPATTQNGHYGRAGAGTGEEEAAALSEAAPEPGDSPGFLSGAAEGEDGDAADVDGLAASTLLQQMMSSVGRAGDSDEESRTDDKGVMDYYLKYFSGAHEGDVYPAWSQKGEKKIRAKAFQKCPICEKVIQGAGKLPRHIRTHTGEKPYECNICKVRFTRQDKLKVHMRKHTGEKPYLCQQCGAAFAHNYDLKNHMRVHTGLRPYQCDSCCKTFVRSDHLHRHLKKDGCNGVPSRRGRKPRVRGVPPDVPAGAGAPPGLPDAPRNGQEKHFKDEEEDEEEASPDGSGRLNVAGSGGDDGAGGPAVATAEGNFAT

Tests used:
[1] = biological target: NFκB p65, endogenous in mouse 3T3 fibroblasts (mouse (endogenous in 3T3 fibroblasts)) (UniProt Q04207); experiment: co-IP; TNF-α-treated unmodified fibroblasts; immunoprecipitation with anti-p65, immunoblotting to detect Zbtb7a; both endogenous
[2] = biological target: T1, isolated C-terminus of p65 fused to Venus fragment V2 (mouse) (UniProt Q04207); experiment: split reporter; BiFC with Venus fragments V1 (aa 1-158) and V2 (aa 159-239); HEK-293 cells cotransfected; fluorescence quantified by flow cytometry after 24 to 48 hours
T1 sequence: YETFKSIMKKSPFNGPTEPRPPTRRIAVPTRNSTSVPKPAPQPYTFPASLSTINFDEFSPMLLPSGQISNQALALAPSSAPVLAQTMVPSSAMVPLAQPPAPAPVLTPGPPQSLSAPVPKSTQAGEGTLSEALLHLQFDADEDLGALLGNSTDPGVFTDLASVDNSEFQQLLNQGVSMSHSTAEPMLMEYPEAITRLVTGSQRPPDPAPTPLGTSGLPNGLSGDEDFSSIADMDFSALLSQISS

[3] = biological target: p65-V2 (mouse NFκB p65 fused to the C-terminal fragment of Venus) (mouse) (UniProt Q04207); experiment: as above

Row | binding [1] | binding [2] | binding [3] | Substance
1 | binds | – | – | Zbtb7a, endogenous in mouse 3T3 fibroblasts (from UniProt O88939 1-569)
2 | – | binds | binds | Zbtb7a-V1 (Zbtb7a fused to the N-terminal fragment of Venus) (from UniProt O88939 1-569)
